Experimental findings from patent US11980596B2 (priority 2017, dated 2024) are described below.

For this data set the following is noted: sodium heparin human plasma.

For `CNC1(c2ccccc2Cl)CCCCC1=O` (racemic) [ketamine, reference compound], the “Lower limit of quantitation (LLOQ)” value amounted to 0.500 ng/mL. As to `NC1(c2ccccc2Cl)CCCCC1=O` (centres unmarked) [Norketamine], the “Lower limit of quantitation (LLOQ)” value was found to be 0.500 ng/mL.
